What all share (type): biochemical
Holding throughout (conditions): in vitro

The test system of assay [1] is uptake of the choline. The experiment in a line: inhibition of the uptake of choline by synaptosomes of the rat's brain, striatum.
Assay [2] relates to uptake of the noradrenaline (NA). The experiment in a line: inhibition of the uptake of noradrenaline (NA) by synaptosomes of the rat's brain, hypothalamus.
Assay [3] relates to uptake of the serotonine (5-HT). The experiment in a line: inhibition of the uptake of serotonine (5-HT) by synaptosomes of the rat's brain, medulla + pons.

For orientation: IC50 means the concentration that inhibits the measured activity by half.

Regarding `CN1Cc2c(N)cccc2C(c2ccccc2)C1` (stereo not drawn) [Nomifensine, reference compound], the half-maximal inhibitory concentration (IC50) in assay [1] was found to be 1000 µM; in assay [2], 0.022 µM; in assay [3] it was 4 µM.

The record behind these values is patent US4224332A, “1-Aza-[2,2,2]-bicyclooctanes and anti-depressant and anti-parkinsonian compositions thereof” (Pharmindustrie, priority 1978, dated 1980).
